Laboratory results reported in patent publication US20080032897A1, “Methods of screening for inhibitors of autoinhibited proteins” (priority 2004, published 2008).

Tested on: mutationally activated Pak2
Settings: FIG. 10, high luminescence = inhibition

## CN[C@@H]1C[C@H]2O[C@@](C)([C@@H]1OC)n1c3ccccc3c3c4c(c5c6ccccc6n2c5c31)C(=O)NC4 [staurosporine]
  inhibition of mutationally activated Pak2: also inhibits mutationally activated Pak2
